Five molecules from patent US20180325981A1 (published 2018) can be followed below.

Assay [1] deals with T1, purified recombinant ADIPOR1 (A88) (UniProt Q96A54).
T1 sequence: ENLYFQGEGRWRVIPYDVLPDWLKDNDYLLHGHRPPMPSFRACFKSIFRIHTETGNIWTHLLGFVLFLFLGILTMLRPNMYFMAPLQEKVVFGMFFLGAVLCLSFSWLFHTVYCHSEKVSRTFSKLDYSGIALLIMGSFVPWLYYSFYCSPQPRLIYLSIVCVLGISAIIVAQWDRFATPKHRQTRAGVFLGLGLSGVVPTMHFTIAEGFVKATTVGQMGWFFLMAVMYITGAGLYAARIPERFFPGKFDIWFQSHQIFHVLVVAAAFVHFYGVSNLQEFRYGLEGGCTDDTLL
Briefly: SPR, ADIPOR1 amine-coupled to CM5 chip, peptide injected.

Assay [2] deals with T1, purified recombinant ADIPOR1 (A88). The assay can be described thus: SPR, immobilised ADIPOR1.
For assay [3] the target is unchanged. The assay can be described thus: SPR; recombinant ADIPOR1 amine-coupled to a CM5 chip, peptide injected at 2.5 to 100 uM.
For assay [4] the target is unchanged. The assay can be described thus: SPR; recombinant ADIPOR1 amine-coupled to a CM5 chip, peptide injected at 1.56 to 50 uM.
Assay [5] shares this target. Briefly: SPR; recombinant ADIPOR1 amine-coupled to a CM5 chip, peptide injected at 0.5 to 50 uM.

These are yes or no findings as the source states them, for the method shown. Some results given as binding are weak or reduced against the parent protein; the word gives no strength.

B1: peptide 3-1 (peptide)
peptide: YYFAYHPNIPGLYYF
notes: Synthetic 3rd round agonist peptide designed for the adiponectin receptor
With B1, the binding result in assay [1], in assay [2] and in assay [3] was “binds” each time.
As to WYFAYHPNIPGLWYF (Synthetic 4th round agonist peptide) [peptide 4-3], the binding entry in assay [4] and in assay [2] was “binds” in each case.

B2: 3-3 (peptide)
peptide: NIPGLWYFAY
notes: 3rd round synthetic peptide; also called peptide 3-3
B2: the binding result in assay [5] is “binds”.

B3: 3-4 (peptide)
peptide: NIPGLFYFAY
notes: 3rd round synthetic peptide; also called peptide 3-4
Take B3: the binding entry in assay [5] was “binds”.
Take FYFAYHPNIPGLFYF (Synthetic 4th round agonist peptide) [peptide 4-4]: the binding result in assay [4] and in assay [2] was “binds” throughout.
